Consider one molecule from patent publication EP1881007A1.

Experiment [1] has as its target T1, IKK2 (tagged, expressed in HeLa cells) (UniProt O14920).
T1 sequence (looked up): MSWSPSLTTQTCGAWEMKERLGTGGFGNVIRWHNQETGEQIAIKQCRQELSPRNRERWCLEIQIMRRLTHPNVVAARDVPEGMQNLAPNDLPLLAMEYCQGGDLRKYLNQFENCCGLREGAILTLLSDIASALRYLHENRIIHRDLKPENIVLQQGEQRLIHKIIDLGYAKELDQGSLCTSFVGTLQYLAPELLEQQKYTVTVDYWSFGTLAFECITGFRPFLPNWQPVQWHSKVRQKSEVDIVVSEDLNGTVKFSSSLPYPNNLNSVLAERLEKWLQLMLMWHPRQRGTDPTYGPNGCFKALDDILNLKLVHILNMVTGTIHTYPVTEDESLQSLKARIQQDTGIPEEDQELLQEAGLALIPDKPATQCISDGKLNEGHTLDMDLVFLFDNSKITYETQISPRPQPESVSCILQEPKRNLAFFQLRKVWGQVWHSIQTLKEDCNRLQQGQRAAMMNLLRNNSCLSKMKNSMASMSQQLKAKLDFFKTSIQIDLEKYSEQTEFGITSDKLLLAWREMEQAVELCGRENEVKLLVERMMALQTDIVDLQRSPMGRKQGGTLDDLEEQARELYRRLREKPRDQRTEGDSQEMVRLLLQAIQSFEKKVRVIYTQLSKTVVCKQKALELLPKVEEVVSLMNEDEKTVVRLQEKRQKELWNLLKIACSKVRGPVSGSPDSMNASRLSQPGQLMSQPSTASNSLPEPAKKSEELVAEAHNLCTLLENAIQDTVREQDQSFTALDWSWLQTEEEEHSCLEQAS
The experiment is described as follows: yeast two hybrid and co-immunoprecipitation.

Experiment [2] concerns the target T1, IKK2 (tagged, expressed in HeLa cells). The experiment is described as follows: co-immunoprecipitation from transfected HeLa cells, Western blot.

Results are given in words; binding and its absence hold for the method and conditions named. In cells and extracts the contact can be indirect. Some binding calls cover weakened binding; strength is not graded here. Sequences can lack the tags named with a protein.

B1: IKK2-55 polypeptide (tagged, expressed in HeLa cells) (protein, not shown: small tags and cut ends)
chain: MSEVKSRKKSGPKGAPAAEPGKRSEGGKTPVARSSGGGGWADPRTCLSLLSLGTCLGLAWFVFQQSEKFAKVENQYQLLKLETNEFQQLQSKISLISEKLESTESILQEATSSMSLMTQFEQEVSNLQDIMHDIQNNEEVLTQRMQSLNEKFQNITDFWKRSLEEMNINTDIFKSEAKHIHSQVTVQINSAEQEIKLLTERLKDLEDSTLRNIRTVKRQEEEDLLRVEEQLGSDTKAIEKLEEEQHALFARDEDLTNKLSDYEPKVEECKTHLPTIESAIHSVLRVSQDLIETEKKMEDLTMQMFNMEDDMLKAVSEIMEMQKTLEGIQYDNSILKMQNELDILKEKVHDFIAYSSTGEKGTLKEYNIENKGIGGDF
On to B1, for which the binding entry in experiment [1] and in experiment [2] was “binds” each time.
